Test results as given in publication PMC5061727.
Results are given in words; binding and its absence hold for the method and conditions named. Some entries that bind do so weakly or less than the wild type. Where a sequence is shown, tags or fusion partners need not be part of it.

Target: T1, CD166 (human (endogenous in THP-1 and Raji)) (UniProt Q13740)
T1 sequence: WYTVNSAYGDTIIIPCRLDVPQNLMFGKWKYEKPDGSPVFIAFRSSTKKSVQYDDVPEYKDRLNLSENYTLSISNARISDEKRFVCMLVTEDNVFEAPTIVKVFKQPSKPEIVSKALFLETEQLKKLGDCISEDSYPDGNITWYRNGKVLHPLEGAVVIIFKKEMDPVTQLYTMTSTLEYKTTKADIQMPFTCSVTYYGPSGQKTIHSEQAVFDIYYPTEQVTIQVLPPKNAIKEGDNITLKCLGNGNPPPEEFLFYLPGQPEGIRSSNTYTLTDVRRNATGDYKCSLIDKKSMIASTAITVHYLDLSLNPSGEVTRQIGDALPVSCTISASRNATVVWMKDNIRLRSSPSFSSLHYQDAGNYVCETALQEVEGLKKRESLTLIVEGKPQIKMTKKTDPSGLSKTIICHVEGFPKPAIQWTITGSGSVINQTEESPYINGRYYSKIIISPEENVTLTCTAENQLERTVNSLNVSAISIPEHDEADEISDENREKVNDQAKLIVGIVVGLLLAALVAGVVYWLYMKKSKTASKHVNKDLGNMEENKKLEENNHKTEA
Assay: flow cytometry on cells; cell lines (Jurkat, K562, THP-1, Raji) incubated with sCD6 tetramers or sCD58 tetramers; streptavidin-PE as control; only the binder purified

binding: binds
B1: soluble extracellular domain of CD6 (HA-sCD6-BirA-His), as tetramers (domain or fragment, UniProt P30203 18-402)
chain: HPSPAPPDQLNTSSAESELWEPGERLPVRLTNGSSSCSGTVEVRLEASWEPACGALWDSRAAEAVCRALGCGGAEAASQLAPPTPELPPPPAAGNTSVAANATLAGAPALLCSGAEWRLCEVVEHACRSDGRRARVTCAENRALRLVDGGGACAGRVEMLEHGEWGSVCDDTWDLEDAHVVCRQLGCGWAVQALPGLHFTPGRGPIHRDQVNCSGAEAYLWDCPGLPGQHYCGHKEDAGAVCSEHQSWRLTGGADRCEGQVEVHFRGVWNTVCDSEWYPSEAKVLCQSLGCGTAVERPKGLPHSLSGRMYYSCNGEELTLSNCSWRFNNSNLCSQSLAARVLCSASRSLHNLSTPEVPASVQTVTIESSVTVKIENKESRELMLL
